Measurements taken from patent US6034064A (Hoechst Pharmaceuticals & Chemicals K.K., priority 1995, dated 2000).
Strings that start with PEPTIDE1 are HELM notation: dots part the residues, brackets hold end groups and non-standard residues.

Assay: solid-phase peptide synthesis
Settings: whole synthesis, 215 nm

With “PEPTIDE1{[tBoc].A.K.L.T.F.G.K.G.T}$$$$V2.0” the “final HPLC purity” value was 97.2%.
